Reference: PubChem BioAssay AID1347075 (National Center for Advancing Translational Sciences (NCATS), 2019)
The campaign covered roughly 400,000 compounds. About 5,500 (1.4%) were called active. Inconclusive means that the source gave no clear call. Such entries were picked first, then a sample of the others. The call rests on the fitted dose curve; in most records, active means well fitted cell-killing curve with a large enough effect; inconclusive means small, poorly fitted or top-dose-only effect, or effect the other way; inactive means flat fitted curve, though single readings scatter. A potency beside an inconclusive call is a rough fit, not a confirmed value.

assay: qHTS assay for MDR1-selective chemotherapeutics: Primary screen using the parental adenocarcinoma cell KB-3-1; conditions: KB-3-1 viability, CellTiter-Glo ATP luminescence, 72 h; activity change, negative = cytotoxic: at 46.1 µM (top of the series); further: nearly all actives have a fitted effect of over 60% in size
Outline: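 Parental KB-3-1 adenocarcinoma cells in phenol-red-free DMEM with 10% FBS were pin-treated with compounds at several concentrations, incubated 72 h at 37 °C, and viability read by CellTiter-Glo luminescence; concentration-effect curves were fitted after normalization.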
On the % scale 0 is the no-effect control and ±100 the full control effect; potency means the concentration at half of the fitted maximal effect.

SMILES | Potency | activity change, negative = cytotoxic
Cc1ccc(Nc2cc(C)c3c(O)cccc3n2)cc1C | inactive | 
Nn1c(Cc2cccc3ccccc23)n[nH]c1=S | inactive | 
COc1cc(OC)c(C(=O)OCC(=O)NC2CCCCCCC2)cc1OC |  | inconclusive: 33.7%
Cn1c(-c2c(N)n(C3CCCC3)c3nc4ccccc4nc23)nc2ccccc21 | active: 16.4 µM | 
CN(C)S(=O)(=O)Oc1ccsc1C(=O)Nc1cccc(Cl)c1 | inconclusive: 29.1 µM [cytotoxic, single point] | 
COc1cc(NC(=O)C2C3C=CC(C3)C2C(=O)O)c(OC)cc1Cl (stereo not drawn) | inactive | 
COc1cccc(NC(=O)Nc2cc(Cl)ccc2C)c1 | inactive | 
CCc1cccc(OCC2Cn3c(nc4c3c(=O)n(C)c(=O)n4C)O2)c1 (stereo not drawn) | inconclusive: 32.6 µM [cytotoxic, single point] | 
N#Cc1c(N)n(-c2ccc(O)cc2)c2nc3ccccc3nc12 |  | inconclusive: 39.5%
CCCCCCCCCCOC(=O)Cn1c(COc2ccc(C)cc2)[n+](C)c2ccccc21 | inconclusive: 32.6 µM [cytotoxic, single point] | 
CN(C)c1ccc(/C=C\C=C/c2ccnc3ccccc23)cc1 | active: 0.92 µM | 
Cc1ccc(/C=C/c2ccc3cccc(O)c3n2)s1 | inconclusive: 23.1 µM [cytotoxic, single point] | 
CCCn1c(=O)c(C(=O)Nc2ccccc2C(=O)OC)c(O)c2ccccc21 | inconclusive: 2.31 µM [cytotoxic, partial curve, poor fit] | 
C=CCN(c1ccccc1OC)S(=O)(=O)c1cccc(C(=O)NCc2cccs2)c1 | inactive | 
CCc1c(C)sc2c1CCN(C(=O)Nc1cc(C)ccc1OC)C2c1ccc(F)cc1 (stereo not drawn) | inactive | 
Cc1ccc(NS(=O)(=O)c2ccc3[nH]c4c(c3c2)CCCCCC4)cc1 | inconclusive: 29.1 µM [cytotoxic, single point] | 
OC1c2cc(Br)ccc2N=C2CCCN21 (stereo not drawn) | inconclusive: 29.1 µM [cytotoxic, single point] | 
CN1CCCN(C(=O)CC(c2ccccc2)c2ccccc2)CC1 | inactive | 
Nc1c(-c2ccccc2)c(CSc2nc3ccccc3[nH]2)nn1-c1ccc(Cl)cc1 | inconclusive: 29.1 µM [cytotoxic, single point] | 
CC(=O)Nc1cccc(NC(=O)c2ccc(C(=O)Nc3cccc(NC(C)=O)c3)nc2)c1 | inactive | 
CC(=O)N1c2ccc(S(=O)(=O)N(C)CC(=O)NC3CCCCC3C)cc2CC1C (stereo not drawn) | inconclusive: 29.1 µM [cytotoxic, single point] | 
COc1ccc(CNC(=O)c2ccc(Cn3cc(Br)cn3)o2)cc1 | inconclusive: 32.6 µM [cytotoxic, single point] | 
CC(C)C(NC(=O)OCc1ccccc1)C(=O)NC(Cc1c[nH]c2ccccc12)C(=O)O (stereo not drawn) |  | inconclusive: -13.1%
CCOC(=O)c1ccc(N2C(=O)c3n[nH]c(-c4ccco4)c3C2c2ccc([N+](=O)[O-])cc2)cc1 (stereo not drawn) | inconclusive: 23.1 µM [cytotoxic, single point] | 

SMILES | Potency | activity change, negative = cytotoxic
Cc1ccc(Cc2c(-c3ccc(F)cc3)nc3c(Cl)cc(C(F)(F)F)cn23)cc1 | inconclusive: 23.1 µM [cytotoxic, single point] | 
COc1cc(OC)c(NC(=O)Nc2c(C)n(C)n(-c3ccccc3)c2=O)cc1Cl | inactive | 
Oc1cccc(-c2ccc3nccn3c2)c1 | inactive | 
O=C(Nc1cc(Cl)ccc1N1CCOCC1)c1ccc(N2CCCC2=O)cc1 | inconclusive: 29.1 µM [cytotoxic, single point] | 
O=c1nc(-c2ccccc2)cc(-c2ccccc2)[nH]1 | inconclusive: 29.1 µM [rising, partial curve, poor fit] | 
CN(C)c1ccc(Cc2ccc(N(C)C)cc2)cc1 | inconclusive: 29.1 µM [cytotoxic, single point] | 
CC1=CC(C)(C(Cl)Cl)C(C)=CC1=O (stereo not drawn) |  | inconclusive: -47.1%
C/C(=N\NC(=O)c1ccc(Cn2cc([N+](=O)[O-])cn2)o1)c1cccc(NC(=O)C(C)C)c1 | inconclusive: 23.1 µM [rising, partial curve] | 
COC(=O)c1cc(=O)n(Cc2ccco2)c(=Nc2ccc(F)c(Cl)c2)s1 | active: 18.4 µM | 
Cc1ccc(C)c(NC(=O)CN(C)C(=O)c2cc(C3CC3)nn2-c2ccccc2)c1 | inactive | 
Cc1ccc2nc(SCc3nnc(-c4ccccc4Br)o3)[nH]c2c1 | inactive | 
CCc1cccc(NC(=O)CSc2nc3ccsc3c(=O)n2CC)c1 | inconclusive: 29.1 µM [cytotoxic, single point] | 
S=C1NCCc2ccccc2C1c1ccccc1Cl (stereo not drawn) | inactive | 
Cc1ccc(OCC(=O)Nc2ccc3c(c2)C(=O)NC3=O)cc1 | inconclusive: 23.1 µM [rising, single point] | 
CCOC(=O)N1CCc2c(sc3nc(SC(C)C)n(N)c(=O)c23)C1 | inconclusive: 29.1 µM [cytotoxic, single point] | 
COc1cc(C2NCC(c3ccc(Cl)cc3Cl)c3c2[nH]c2ccccc32)cc(OC)c1OC (stereo not drawn) | active: 18.4 µM | 
Cn1nnnc1Sc1ncnc2scc(-c3ccc(Cl)cc3)c12 | inconclusive: 29.1 µM [cytotoxic, single point] | 
COc1ccc(-n2c(C)cc(C(=O)CSc3nnc(-c4cccs4)o3)c2C)cc1 | inconclusive: 25.9 µM [cytotoxic, single point] | 
Cc1ccc(NC(=O)c2cnn(-c3ccccc3)c2C)cc1C | inconclusive: 20.6 µM [cytotoxic, single point] | 
COc1cccc(CC2(CO)CCN(CC3=CC[C@H]4C[C@@H]3C4(C)C)CC2)c1 | inactive | 
COc1ccc(OC)c(NC(=O)CC2SC(=NCc3ccccc3)NC2=O)c1 (stereo not drawn) | inconclusive: 20.6 µM [cytotoxic, single point] | 
COc1cc2c(cc1OC)C(C)N(C(=O)Nc1ccccc1)CC2 (stereo not drawn) | active: 6.51 µM | 
Cc1cc(NC(=O)CC2CCCC2)n(-c2nc3ccccc3[nH]2)n1 | inconclusive: 32.6 µM [cytotoxic, single point] | 
CC(=O)CSc1nc2c(c(=O)[nH]c(=O)n2C)n1Cc1ccccc1Cl | inconclusive: 0.0259 µM [rising, full curve] | 

Quoted from above for reference:
SMILES | Potency | activity change, negative = cytotoxic
CCc1cccc(NC(=O)CSc2nc3ccsc3c(=O)n2CC)c1 | inconclusive: 29.1 µM [cytotoxic, single point] | 
S=C1NCCc2ccccc2C1c1ccccc1Cl (stereo not drawn) | inactive | 
Cc1ccc(OCC(=O)Nc2ccc3c(c2)C(=O)NC3=O)cc1 | inconclusive: 23.1 µM [rising, single point] | 
